Laboratory results published in US6750221B1 (BASF Aktiengesellschaft, priority 1999, dated 2004).
Some of these results come from one statement about several compounds together. At least one structure is not confirmed: it was looked up by name or label, or the drawing left a doubt.

Protein sequences, listed by entry. Tags and fused reporters are not part of them.
UniProt P47898, whole entry: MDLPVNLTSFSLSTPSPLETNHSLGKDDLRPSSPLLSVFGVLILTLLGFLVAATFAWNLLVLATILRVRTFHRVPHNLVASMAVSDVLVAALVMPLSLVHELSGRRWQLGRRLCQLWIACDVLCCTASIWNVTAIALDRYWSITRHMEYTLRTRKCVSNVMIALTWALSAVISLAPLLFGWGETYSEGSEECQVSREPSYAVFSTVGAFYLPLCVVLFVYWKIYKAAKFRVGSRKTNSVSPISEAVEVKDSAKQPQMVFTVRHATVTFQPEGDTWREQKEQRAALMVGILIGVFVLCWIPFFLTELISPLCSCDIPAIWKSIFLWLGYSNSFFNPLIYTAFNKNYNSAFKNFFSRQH

Molecular target: T1, h5-HT5 receptor (Homo sapiens, UniProt P47898)
T1 construct: expressed in transfected cells; host or cells: HEK293 cells (CHO cells obtained analogously), pcDNA3 plasmid, neomycin selection; membranes prepared
Experiment: Agonist-induced stimulation of [35S]GTPγS binding to membranes of h5-HT5-transfected HEK293 cells
Format: biochemical
Conditions: 10 μM GDP

NCCc1c[nH]c2ccc(C(N)=O)cc12 [Compound 5-CT, 5-carboxamidotryptamine]
increase in the [35S]GTPγS binding to the cell membranes above the basic value: over 40%
